At least one structure is not confirmed: it was looked up by name or label, or the drawing left a doubt.
Legend:
[1] = tested on: murine erythroleukemia cells (Friend); settings: ionizing radiation, wortmannin treatment (Cataldi et al); cited from earlier work
[2] = tested on: colon cancer cell line HT-29; settings: HT-29, by inhibiting PDK-1 (Arico et al); cited from earlier work
[3] = tested on: human primary neutrophils; assay: Neutrophil apoptosis by sub G1 analysis (DNA fragmentation); format: cell-based; settings: inhibitor 20 μM with GM-CSF 50 units/ml, 18 h, relative to GM-CSF alone
Protocol: Neutrophils are isolated from the blood as described in WO 02/04657 and resuspended at a concentration of 2×10^6/ml. Five hundred microlitres are pipetted into wells of a 24 well plate and incubated in the presence or absence of survival factors.
After this incubation, the neutrophils are carefully resuspended by gentle agitation and the total contents of the well are placed into an eppendorf and centrifuged@2800 rpm for 2 min@RT in a minifuge. The cell pellet is carefully resuspended in 300 μl of ice cold hypotonic fluorochrome solution (50 μg/ml Propidium Iodide, 0.1% Sodium Citrate and 0.1% Triton X-100) and placed in a fridge for 24 h@4° C.
Prepared samples are analysed with a FacsCalibre flow cytometer (Becton Dickinson) using double discrimination to ensure single cell suspension with Log Forward and Side Scatter Parameter acquisition.
Neutrophils are seeded at 2×10^6/ml in a 24 well plate in full culture medium (1 ml/well). A PI3K inhibitor (Ly294002) is added to the neutrophils to a final concentration of 20 μM prior to the addition of GM-CSF (50 units/ml). Control wells received either no GM-CSF or F GM-CSF (50 units/ml) in the absence of inhibitor. Neutrophils are cultured for 18 h at 37° C. prior to harvest and prepared for sub G1 analysis, as previously described.
Neutrophils are seeded at 2×10^6/ml in a 24 well plate in full culture medium (1 ml/well). […]

## COC[C@H]1OC(=O)c2coc3c2[C@@]1(C)C1=C(C3=O)[C@@H]2CCC(=O)[C@@]2(C)C[C@H]1OC(C)=O [wortmannin]
[1]
  apoptotic cells: increased number of apoptotic cells

## Cc1ccc(-c2cc(C(F)(F)F)nn2-c2ccc(S(N)(=O)=O)cc2)cc1 [Celecoxib]
[2]
  apoptosis: induced apoptosis

## O=c1cc(N2CCOCC2)oc2c(-c3ccccc3)cccc12 [Ly294002]
[3]
  apoptosis / GM-CSF mediated survival by sub G1 analysis: survival is abrogated
[3]; listed as Ly204002
  apoptosis / GM-CSF mediated survival by sub G1 analysis: increases the amount of apoptosis

Reference: patent publication US20050019746A1, “Apoptosis-related kinase/GPCRs” (EiRx Therapeutics Limited, priority 2003, published 2005)
